Results are given in words; binding and its absence hold for the method and conditions named. In cells and extracts the contact can be indirect. Here binding means that the protein was enriched with, or labelled near, the bait; the list need not be complete.
biological target: Protein DJ-1 (human (endogenous in MCF7)) (UniProt Q99497); test: affinity purification with mass spectrometry; anti-DJ-1 antibody and Protein A/G PLUS-Agarose on 100 µg nuclear extract of MCF7 cells, 4 °C; SDS-PAGE, gel slices, LC-MS/MS; proteins also found in the Mock-IP (resin only) removed from the list

By UniProt entry, the sequences of proteins in these tests, tags left out.
UniProt Q99497: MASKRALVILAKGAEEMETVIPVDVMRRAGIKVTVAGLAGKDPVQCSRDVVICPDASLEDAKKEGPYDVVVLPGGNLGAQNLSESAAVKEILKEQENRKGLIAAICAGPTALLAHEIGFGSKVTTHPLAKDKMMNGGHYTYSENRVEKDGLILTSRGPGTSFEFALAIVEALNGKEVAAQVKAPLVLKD
UniProt P11586: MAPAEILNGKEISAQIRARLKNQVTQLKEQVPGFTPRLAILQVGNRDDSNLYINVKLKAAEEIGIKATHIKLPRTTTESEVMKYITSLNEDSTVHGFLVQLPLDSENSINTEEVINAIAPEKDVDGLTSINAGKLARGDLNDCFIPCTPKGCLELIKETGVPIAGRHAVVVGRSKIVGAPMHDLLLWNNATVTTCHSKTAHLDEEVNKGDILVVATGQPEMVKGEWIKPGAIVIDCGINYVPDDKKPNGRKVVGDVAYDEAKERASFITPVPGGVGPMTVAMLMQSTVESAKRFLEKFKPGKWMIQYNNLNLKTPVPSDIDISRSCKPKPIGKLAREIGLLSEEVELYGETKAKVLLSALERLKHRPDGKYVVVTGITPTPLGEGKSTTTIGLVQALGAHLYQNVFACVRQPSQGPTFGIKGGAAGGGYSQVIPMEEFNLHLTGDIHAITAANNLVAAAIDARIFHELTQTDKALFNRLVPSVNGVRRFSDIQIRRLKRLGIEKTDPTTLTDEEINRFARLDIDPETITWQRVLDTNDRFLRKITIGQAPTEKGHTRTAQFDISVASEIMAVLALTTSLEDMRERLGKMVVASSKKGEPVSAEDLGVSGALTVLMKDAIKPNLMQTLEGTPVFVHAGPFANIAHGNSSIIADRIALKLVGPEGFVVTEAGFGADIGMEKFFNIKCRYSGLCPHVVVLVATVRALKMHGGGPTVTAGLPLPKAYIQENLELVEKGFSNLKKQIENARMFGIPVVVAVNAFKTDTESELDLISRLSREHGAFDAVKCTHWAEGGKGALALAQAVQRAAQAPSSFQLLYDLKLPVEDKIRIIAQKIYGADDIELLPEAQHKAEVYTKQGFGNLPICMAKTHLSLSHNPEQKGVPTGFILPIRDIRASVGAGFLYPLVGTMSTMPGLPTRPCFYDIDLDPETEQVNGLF
UniProt Q8TCU6: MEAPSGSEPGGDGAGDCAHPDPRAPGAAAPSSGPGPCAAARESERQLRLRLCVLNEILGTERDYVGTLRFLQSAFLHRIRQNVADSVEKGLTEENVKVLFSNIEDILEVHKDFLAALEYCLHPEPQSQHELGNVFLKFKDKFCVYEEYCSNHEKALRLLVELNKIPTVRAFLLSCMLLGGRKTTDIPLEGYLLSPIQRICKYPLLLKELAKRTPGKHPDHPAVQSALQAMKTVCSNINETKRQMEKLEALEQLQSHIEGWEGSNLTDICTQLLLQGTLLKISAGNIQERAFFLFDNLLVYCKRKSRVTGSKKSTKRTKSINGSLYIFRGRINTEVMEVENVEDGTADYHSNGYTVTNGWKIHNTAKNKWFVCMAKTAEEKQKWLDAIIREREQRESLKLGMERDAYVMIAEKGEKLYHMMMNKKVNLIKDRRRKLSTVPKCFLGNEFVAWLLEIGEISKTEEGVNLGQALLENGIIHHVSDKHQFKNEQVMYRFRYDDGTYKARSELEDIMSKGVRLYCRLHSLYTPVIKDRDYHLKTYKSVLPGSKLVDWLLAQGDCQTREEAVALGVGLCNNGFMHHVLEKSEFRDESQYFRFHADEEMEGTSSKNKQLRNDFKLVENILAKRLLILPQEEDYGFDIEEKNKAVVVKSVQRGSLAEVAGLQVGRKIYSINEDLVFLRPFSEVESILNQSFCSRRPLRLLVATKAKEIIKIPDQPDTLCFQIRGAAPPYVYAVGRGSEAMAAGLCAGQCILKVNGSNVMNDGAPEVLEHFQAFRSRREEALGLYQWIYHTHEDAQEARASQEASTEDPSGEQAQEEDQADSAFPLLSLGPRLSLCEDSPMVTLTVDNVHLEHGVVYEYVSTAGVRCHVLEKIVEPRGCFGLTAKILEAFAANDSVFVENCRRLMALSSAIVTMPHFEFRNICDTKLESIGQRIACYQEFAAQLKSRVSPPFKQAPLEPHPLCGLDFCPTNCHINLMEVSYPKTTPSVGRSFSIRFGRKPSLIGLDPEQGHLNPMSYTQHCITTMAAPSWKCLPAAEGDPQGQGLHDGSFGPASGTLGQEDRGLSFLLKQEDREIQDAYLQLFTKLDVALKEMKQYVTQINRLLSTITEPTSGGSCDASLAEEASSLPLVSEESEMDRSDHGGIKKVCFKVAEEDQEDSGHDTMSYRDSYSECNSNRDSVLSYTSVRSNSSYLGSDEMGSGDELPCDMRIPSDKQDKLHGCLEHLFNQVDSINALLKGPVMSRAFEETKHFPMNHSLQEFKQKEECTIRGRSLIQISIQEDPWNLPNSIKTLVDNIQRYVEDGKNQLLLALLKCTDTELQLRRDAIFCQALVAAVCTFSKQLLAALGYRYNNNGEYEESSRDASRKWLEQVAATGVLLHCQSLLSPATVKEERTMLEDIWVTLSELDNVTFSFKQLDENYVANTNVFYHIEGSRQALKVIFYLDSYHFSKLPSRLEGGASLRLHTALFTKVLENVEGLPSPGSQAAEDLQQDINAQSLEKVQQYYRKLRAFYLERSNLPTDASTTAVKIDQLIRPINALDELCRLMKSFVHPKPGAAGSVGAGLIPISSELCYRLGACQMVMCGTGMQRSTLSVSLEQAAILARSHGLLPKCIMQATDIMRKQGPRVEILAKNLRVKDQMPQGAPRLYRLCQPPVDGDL
UniProt Q00610: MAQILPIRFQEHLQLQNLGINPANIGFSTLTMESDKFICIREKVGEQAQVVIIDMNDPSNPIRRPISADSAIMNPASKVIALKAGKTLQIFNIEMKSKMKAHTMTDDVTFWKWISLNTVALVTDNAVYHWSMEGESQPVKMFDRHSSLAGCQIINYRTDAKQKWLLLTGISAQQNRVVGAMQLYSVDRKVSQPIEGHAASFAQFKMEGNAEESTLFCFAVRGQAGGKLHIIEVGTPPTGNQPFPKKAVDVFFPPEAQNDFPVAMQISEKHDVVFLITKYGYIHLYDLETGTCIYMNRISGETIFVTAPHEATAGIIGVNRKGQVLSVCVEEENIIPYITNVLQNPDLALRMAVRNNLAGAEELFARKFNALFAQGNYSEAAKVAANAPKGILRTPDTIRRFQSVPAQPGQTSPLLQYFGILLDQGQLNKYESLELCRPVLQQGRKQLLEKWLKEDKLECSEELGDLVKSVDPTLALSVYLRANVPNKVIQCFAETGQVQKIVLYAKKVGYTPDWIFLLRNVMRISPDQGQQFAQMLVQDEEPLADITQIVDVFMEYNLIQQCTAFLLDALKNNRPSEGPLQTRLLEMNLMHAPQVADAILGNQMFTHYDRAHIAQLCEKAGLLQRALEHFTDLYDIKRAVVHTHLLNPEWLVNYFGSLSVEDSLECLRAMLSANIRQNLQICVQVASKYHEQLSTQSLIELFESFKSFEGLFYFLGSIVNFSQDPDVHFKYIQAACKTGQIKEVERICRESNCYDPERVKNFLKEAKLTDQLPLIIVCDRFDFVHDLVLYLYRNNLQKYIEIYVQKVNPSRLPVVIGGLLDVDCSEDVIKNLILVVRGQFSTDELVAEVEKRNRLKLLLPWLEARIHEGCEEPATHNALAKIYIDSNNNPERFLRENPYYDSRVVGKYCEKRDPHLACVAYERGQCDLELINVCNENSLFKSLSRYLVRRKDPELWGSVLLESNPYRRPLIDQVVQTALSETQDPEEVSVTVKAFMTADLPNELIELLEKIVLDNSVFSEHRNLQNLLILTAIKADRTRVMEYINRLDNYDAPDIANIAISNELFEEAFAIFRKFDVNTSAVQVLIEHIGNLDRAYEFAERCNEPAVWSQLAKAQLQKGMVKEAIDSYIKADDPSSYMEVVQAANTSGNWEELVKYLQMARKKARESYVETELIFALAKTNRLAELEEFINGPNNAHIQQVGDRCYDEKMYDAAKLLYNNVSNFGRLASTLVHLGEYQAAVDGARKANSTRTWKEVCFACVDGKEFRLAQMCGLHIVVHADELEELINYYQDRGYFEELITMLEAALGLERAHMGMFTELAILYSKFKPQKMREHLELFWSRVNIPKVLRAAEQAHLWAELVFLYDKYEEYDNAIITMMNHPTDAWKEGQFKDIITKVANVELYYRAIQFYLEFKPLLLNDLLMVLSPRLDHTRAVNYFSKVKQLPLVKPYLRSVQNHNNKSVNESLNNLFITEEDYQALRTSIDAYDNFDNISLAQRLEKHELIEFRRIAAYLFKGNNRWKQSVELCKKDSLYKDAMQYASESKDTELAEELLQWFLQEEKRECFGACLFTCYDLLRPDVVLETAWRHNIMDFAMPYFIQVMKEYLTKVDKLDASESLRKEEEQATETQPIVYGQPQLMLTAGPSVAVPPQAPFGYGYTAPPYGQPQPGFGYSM

binding	Substance
binds	methylenetetrahydrofolate dehydrogenase (from UniProt P11586 1-935)
binds	Phosphatidylinositol 3,4,5-trisphosphate-dependent Rac exchanger 1 protein (from UniProt Q8TCU6 1-1659)
binds	Clathrin heavy chain 1 (from UniProt Q00610 1-1675)

Source: publication PMC7563694
